Source: PMC7994674
No constants are given. Whether binding was seen depends on the method and setting. In cells and extracts the contact can be indirect. Some binding calls cover weakened binding; strength is not graded here.

Sequences of proteins named here, by UniProt entry; tags and fusion partners are left off. Residues count along the entry.
UniProt P35951, residues 22-790: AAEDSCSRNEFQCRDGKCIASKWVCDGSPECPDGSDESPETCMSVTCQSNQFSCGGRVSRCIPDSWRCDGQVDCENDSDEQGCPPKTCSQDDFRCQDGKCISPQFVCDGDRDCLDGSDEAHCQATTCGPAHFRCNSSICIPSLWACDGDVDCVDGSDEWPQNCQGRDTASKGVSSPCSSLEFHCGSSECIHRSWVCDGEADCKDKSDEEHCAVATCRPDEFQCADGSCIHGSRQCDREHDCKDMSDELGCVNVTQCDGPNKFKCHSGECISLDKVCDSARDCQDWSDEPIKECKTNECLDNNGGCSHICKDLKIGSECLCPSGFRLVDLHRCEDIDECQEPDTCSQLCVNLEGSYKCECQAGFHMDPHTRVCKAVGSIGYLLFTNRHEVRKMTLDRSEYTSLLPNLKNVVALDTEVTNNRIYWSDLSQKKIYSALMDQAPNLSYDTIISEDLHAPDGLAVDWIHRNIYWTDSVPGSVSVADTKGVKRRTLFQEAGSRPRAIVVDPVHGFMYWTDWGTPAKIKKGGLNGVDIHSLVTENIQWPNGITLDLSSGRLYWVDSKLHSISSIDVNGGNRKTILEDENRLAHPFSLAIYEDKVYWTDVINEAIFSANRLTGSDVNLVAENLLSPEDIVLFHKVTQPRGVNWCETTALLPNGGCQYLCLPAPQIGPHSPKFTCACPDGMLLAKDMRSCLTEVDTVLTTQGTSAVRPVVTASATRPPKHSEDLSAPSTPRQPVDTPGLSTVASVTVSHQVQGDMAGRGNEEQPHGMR
UniProt E9Q414, residues 28-4505: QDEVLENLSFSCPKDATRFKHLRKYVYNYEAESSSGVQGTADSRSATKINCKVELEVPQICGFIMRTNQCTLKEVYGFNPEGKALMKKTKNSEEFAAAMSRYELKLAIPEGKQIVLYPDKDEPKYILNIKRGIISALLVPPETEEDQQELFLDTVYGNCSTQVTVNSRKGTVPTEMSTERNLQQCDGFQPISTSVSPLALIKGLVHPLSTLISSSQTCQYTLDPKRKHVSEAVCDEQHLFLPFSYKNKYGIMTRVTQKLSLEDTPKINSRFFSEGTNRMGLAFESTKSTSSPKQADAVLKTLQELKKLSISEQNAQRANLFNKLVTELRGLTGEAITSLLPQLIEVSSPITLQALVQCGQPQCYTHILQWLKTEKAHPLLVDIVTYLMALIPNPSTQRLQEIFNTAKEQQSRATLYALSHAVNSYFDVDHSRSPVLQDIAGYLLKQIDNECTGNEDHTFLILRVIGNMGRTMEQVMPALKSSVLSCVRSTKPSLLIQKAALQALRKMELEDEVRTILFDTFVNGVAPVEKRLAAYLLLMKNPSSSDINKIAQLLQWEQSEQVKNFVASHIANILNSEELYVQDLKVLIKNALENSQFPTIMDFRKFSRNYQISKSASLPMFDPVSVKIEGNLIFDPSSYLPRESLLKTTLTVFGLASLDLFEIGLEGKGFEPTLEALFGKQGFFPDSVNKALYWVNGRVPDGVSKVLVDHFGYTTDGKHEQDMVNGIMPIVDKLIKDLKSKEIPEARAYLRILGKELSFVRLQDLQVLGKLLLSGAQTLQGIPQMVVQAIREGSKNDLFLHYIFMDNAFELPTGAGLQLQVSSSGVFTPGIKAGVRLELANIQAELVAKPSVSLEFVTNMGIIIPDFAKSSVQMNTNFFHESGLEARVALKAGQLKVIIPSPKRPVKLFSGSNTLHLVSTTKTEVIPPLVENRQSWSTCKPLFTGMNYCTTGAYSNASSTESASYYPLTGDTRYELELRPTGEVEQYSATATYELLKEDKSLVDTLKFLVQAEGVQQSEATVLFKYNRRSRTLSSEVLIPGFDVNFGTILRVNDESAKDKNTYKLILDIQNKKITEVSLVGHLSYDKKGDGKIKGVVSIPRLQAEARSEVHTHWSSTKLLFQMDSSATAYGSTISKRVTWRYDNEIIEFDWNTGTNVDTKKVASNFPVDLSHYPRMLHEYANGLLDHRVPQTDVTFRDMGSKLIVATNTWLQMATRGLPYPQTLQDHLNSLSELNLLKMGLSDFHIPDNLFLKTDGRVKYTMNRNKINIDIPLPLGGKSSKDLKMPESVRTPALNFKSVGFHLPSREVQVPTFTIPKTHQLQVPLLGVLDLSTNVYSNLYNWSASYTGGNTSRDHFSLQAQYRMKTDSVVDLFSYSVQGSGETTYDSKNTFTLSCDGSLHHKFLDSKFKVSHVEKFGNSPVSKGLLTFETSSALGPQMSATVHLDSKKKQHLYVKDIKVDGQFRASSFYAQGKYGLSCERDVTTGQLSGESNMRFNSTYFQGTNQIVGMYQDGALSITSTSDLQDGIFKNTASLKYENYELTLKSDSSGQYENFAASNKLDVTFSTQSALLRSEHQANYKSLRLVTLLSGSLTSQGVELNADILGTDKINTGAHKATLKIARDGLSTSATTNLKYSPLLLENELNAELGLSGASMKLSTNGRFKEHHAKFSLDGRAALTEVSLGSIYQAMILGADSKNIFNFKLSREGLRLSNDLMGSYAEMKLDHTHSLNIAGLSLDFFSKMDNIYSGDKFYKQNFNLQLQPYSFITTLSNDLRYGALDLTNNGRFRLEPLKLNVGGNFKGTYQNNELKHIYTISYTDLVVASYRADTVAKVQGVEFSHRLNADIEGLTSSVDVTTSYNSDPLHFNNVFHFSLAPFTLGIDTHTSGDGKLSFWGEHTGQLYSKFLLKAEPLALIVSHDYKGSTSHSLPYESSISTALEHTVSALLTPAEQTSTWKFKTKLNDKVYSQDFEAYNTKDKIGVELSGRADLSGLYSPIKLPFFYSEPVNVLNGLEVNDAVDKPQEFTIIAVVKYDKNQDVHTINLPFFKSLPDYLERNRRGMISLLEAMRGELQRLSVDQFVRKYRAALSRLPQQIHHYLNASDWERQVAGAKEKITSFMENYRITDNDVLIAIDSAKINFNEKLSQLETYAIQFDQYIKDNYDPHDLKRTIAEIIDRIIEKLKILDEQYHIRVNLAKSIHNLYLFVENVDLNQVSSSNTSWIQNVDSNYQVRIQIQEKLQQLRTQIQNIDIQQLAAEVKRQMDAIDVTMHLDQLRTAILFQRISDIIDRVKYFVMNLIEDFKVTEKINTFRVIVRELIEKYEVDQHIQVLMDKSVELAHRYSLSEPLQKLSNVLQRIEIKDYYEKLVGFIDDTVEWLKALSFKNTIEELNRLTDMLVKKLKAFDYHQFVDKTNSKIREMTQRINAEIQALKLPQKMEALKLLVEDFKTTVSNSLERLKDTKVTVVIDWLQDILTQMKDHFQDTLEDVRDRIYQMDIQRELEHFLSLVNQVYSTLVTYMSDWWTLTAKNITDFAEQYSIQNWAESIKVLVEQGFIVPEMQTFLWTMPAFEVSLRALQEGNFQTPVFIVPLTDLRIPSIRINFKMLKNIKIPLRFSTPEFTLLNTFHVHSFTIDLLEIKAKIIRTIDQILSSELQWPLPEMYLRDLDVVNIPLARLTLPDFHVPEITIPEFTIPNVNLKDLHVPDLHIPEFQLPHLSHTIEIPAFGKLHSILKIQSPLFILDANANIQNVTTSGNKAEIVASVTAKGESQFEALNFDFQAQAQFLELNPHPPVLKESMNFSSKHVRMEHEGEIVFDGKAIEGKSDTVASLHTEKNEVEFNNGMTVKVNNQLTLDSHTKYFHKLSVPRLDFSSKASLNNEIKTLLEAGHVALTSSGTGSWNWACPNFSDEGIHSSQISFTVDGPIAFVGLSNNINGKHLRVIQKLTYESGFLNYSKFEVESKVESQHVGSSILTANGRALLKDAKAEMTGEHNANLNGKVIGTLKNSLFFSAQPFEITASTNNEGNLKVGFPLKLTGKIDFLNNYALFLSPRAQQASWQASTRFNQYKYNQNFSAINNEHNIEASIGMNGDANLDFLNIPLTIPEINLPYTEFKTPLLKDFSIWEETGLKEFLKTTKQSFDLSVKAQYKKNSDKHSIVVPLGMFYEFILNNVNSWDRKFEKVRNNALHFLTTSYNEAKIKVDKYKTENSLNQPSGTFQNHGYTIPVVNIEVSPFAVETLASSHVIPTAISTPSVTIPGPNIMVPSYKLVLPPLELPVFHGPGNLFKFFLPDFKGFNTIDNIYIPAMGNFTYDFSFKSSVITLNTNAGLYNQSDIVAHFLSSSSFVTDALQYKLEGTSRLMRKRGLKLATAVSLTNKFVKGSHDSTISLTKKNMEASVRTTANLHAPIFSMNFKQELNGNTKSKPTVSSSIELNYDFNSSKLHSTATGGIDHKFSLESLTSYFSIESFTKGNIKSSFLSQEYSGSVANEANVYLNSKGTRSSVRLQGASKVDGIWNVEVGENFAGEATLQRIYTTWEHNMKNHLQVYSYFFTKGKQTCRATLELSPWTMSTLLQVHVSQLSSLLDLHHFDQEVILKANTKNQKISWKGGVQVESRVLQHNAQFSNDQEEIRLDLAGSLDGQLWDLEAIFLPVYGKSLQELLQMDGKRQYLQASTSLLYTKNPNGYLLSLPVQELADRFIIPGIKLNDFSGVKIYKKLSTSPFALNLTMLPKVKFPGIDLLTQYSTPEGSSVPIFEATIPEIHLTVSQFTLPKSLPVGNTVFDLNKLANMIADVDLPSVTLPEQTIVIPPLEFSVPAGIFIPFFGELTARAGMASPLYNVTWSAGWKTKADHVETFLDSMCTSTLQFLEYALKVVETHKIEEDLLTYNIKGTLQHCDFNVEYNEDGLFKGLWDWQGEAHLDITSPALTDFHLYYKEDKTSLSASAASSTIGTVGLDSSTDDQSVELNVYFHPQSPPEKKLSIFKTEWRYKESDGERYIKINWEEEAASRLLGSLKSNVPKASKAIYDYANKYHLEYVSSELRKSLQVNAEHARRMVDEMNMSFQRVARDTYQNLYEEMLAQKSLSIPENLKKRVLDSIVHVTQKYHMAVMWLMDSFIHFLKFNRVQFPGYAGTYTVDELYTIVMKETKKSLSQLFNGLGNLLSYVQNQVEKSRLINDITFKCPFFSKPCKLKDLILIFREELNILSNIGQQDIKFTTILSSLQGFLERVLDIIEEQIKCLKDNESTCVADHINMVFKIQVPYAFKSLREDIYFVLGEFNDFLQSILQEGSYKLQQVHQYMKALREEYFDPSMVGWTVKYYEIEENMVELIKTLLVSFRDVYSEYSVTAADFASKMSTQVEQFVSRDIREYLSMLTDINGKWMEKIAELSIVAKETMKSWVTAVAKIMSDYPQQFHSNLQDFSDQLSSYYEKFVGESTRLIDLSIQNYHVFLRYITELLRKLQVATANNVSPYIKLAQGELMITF

B1: apolipoprotein E (protein, UniProt P08226 19-311)
chain: EGEPEVTDQLEWQSNQPWEQALNRFWDYLRWVQTLSDQVQEELQSSQVTQELTALMEDTMTEVKAYKKELEEQLGPVAEETRARLGKEVQAAQARLGADMEDLRNRLGQYRNEVHTMLGQSTEEIRARLSTHLRKMRKRLMRDAEDLQKRLAVYKAGAREGAERGVSAIRERLGPLVEQGRQRTANLGAGAAQPLRDRAQAFGDRIRGRLEEVGNQARDRLEEVREHMEEVRSKMEEQTQQIRLQAEIFQARLKGWFEPIVEDMHRQWANLMEKIQASVATNPIITPVAQENQ

Biological target: soluble LDL receptor ectodomain (mouse plasma sLDLR) (mouse (endogenous in plasma of wild-type mice)) (UniProt P35951)
Assay: co-IP; plasma pooled from three wild-type or Ldlr-/- mice applied to a rat anti-mouse LDLR antibody and protein-G beads; immunoblotting

| Molecule | binding |
| --- | --- |
| apolipoprotein B100 (from UniProt E9Q414 28-4505) | binds |
| B1 | binds |
